Test results from PubChem BioAssay AID1347072 (National Center for Advancing Translational Sciences (NCATS), 2019).
The whole screen tested about 44,000 compounds, of which fewer than 10 were called active. This list was built around the results that the source calls inconclusive (neither active nor inactive); the mix of calls is not that of the screen. Calls come from the whole dose curve; as a rule, active = well fitted curve in the direction sought with a large enough effect; inconclusive = small, poorly fitted or top-dose-only effect, or another doubt; inactive = no such curve, though single readings can be large or run the other way. Where the call is inconclusive, the potency comes from a doubtful curve fit.

Chains of the proteins cited; added tags and fusions are not shown. Lines headed by an entry give the natural chain unless they say otherwise; changes in a name come on top.
UniProt P51570: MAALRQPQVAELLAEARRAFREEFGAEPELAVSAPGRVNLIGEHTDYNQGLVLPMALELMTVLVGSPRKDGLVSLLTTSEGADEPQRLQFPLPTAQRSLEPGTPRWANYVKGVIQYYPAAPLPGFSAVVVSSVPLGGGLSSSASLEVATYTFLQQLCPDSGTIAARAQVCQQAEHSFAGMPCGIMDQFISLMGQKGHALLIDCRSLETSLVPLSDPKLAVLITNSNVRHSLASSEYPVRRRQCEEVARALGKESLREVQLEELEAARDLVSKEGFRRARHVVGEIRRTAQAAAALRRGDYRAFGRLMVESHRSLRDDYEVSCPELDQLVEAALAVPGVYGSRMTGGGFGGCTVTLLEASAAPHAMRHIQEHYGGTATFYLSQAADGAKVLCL

molecular target: Galactokinase (Homo sapiens) (UniProt P51570); experiment: qHTS Assay for Inhibitors of Human Galactokinase (GALK): NCGC Sytravon Library Screen; settings: recombinant GALK, Kinase-Glo ATP luminescence, 1 h; series mostly up to 57.5 µM
In short: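 Reactions with and without enzyme served as controls. GALK at 5 nM phosphorylates 100 uM galactose using 35 uM ATP (HEPES pH 8.0, Mg2+) for 1 h at RT, with luminescence read 10 min after adding Kinase-Glo Plus.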

SMILES | Potency
CCCn1c(=O)c2sccc2n2c(CCCC(=O)N3CCN(c4cccc(C)c4C)CC3)nnc12 | inconclusive: 0.562 µM [inhibitor, partial curve, poor fit]
COc1ccc(N2CCN(CCCNC(=O)c3cc(Nc4ccccc4OC)nc4ccccc34)CC2)cc1 | inconclusive: 3.16 µM [inhibitor, partial curve, poor fit]
Cc1cccc(C)c1NC(=O)c1c(C)oc2c1C1=NCCN1C=N2 | inconclusive: 5.01 µM [inhibitor, full curve, poor fit]
COc1ccc(NC(=O)c2cc(S(=O)(=O)N3CCCCC3)c[nH]2)cc1Cl | inconclusive: 1.26 µM [inhibitor, full curve, poor fit]
Cc1ccc(C(CC(=O)NCC2(c3ccccc3)CCCC2)c2ccccc2)c(O)c1 (stereo not given) | inactive
COc1ccc(S(=O)(=O)N2CCN(Cc3nc4ccc(C)cc4o3)CC2)cc1OC | inconclusive: 25.1 µM [inhibitor, partial curve, poor fit]
O=C(NCc1cccs1)c1nn(-c2ccccc2)nc1CO | inconclusive: 39.8 µM [inhibitor, partial curve, poor fit]
Cc1ccc(OCCSc2nc3ccc(NC(=O)COc4ccc(F)cc4)cc3s2)cc1 | inconclusive: 0.112 µM [inhibitor, full curve, poor fit]
Cc1ccc(-n2ncc3c(NCCc4ccccc4)ncnc32)cc1C | inactive
Cc1ccccc1CN1CCc2nc(Nc3ccc4c(c3)OCCO4)ncc2C1 | inconclusive: 0.282 µM [inhibitor, full curve, poor fit]
COc1ccc2c(c1)-c1nc(NC(=O)c3ccc(C)cc3)sc1CC2 | inconclusive: 39.8 µM [inhibitor, single point]
Cn1ccc2c(OCC(=O)NCc3ccccc3Cl)cccc2c1=O | inactive
COc1ccc(CNC(=O)Cn2ncn3nc(-c4cccs4)cc3c2=O)cc1 | inconclusive: 1.26 µM [inhibitor, full curve, poor fit]
CCc1ccc(NC(=O)C(CC)n2nnc(C(=O)OC)c2C(=O)OC)cc1 (stereo not given) | inconclusive: 0.891 µM [inhibitor, full curve, poor fit]
COC(=O)c1ccccc1NC(=O)CCn1c(=O)c2cccn2c2cccnc21 | inconclusive: 3.98 µM [inhibitor, partial curve, poor fit]
O=C(CSc1nc2c(oc3ccccc32)c(=O)[nH]1)Nc1cccc(Cl)c1 | inconclusive: 5.62 µM [inhibitor, partial curve, poor fit]
CCc1ccc(NC(=O)c2oc3c(c2C)-c2[nH]ncc2CC3)cc1 | inconclusive: 0.891 µM [inhibitor, full curve, poor fit]
CN(Cc1ccccc1)C(=O)c1cc2c(s1)-c1ccc(Cl)cc1SC2 | inactive
CCC(=O)N1CCc2cc(S(=O)(=O)CCC(=O)Nc3ccc(Cl)c(C(F)(F)F)c3)ccc21 | inactive
COc1ccc(-c2noc(-c3cccc(OC)c3OC)n2)cc1 | inconclusive: 39.8 µM [inhibitor, single point]

Copied from the list:
For Potency, COc1ccc(CNC(=O)Cn2ncn3nc(-c4cccs4)cc3c2=O)cc1 has inconclusive: 1.26 µM [inhibitor, full curve, poor fit]
For Potency, Cc1ccc(-n2ncc3c(NCCc4ccccc4)ncnc32)cc1C has inactive
For Potency, O=C(NCc1cccs1)c1nn(-c2ccccc2)nc1CO has inconclusive: 39.8 µM [inhibitor, partial curve, poor fit]
For Potency, CCCn1c(=O)c2sccc2n2c(CCCC(=O)N3CCN(c4cccc(C)c4C)CC3)nnc12 has inconclusive: 0.562 µM [inhibitor, partial curve, poor fit]
For Potency, COc1ccc(-c2noc(-c3cccc(OC)c3OC)n2)cc1 has inconclusive: 39.8 µM [inhibitor, single point]

Next part.

SMILES | Potency
CN1CCc2c(sc(NC(=O)CSc3ccc(F)cc3)c2-c2nc3ccccc3s2)C1 | inactive
CCCSCCCNC(=O)CN1C(=O)CCn2nc(-c3cn(C)c4ccccc34)cc21 | inconclusive: 0.282 µM [inhibitor, full curve, poor fit]
O=C(Nc1ccc(F)cc1F)N1CCc2c(sc3c2CCCC3)C1c1ccc(F)cc1 (stereo not given) | inconclusive: 28.2 µM [inhibitor, partial curve, poor fit]
CC(C)c1ccc(NC(=O)c2ccc(F)c(S(=O)(=O)N3CCN(c4ccccc4F)CC3)c2)cc1 | inactive
Cc1ccc(-n2nc3c(N4CCC(C(=O)N(C)Cc5ccccc5)CC4)nnc(C)c3c2C)cc1 | inconclusive: 0.794 µM [inhibitor, full curve, poor fit]
COC(=O)c1c(-c2ccc(Cl)cc2)noc1N1CCN(c2cccc(C)c2C)CC1 | inconclusive: 1.12 µM [inhibitor, full curve, poor fit]
COc1ccc(CCNC(=O)CSc2cn(CCNC(=O)c3ccccc3F)c3ccccc23)cc1OC | inactive
Cc1c(C(=O)OC2CCC(C)CC2)[nH]c2c1C(=O)CC(c1ccccc1Cl)C2 (stereo not given) | inactive
CC(C)c1ccc(N2C(=O)CSC23C(=O)N(Cc2ccccc2F)c2ccccc23)cc1 (stereo not given) | inactive
Cc1ccc(C)c(NC(=O)Cn2c(-c3nonc3N)nc3ccccc32)c1 | inconclusive: 0.355 µM [inhibitor, full curve, poor fit]
COc1ccc(C(=O)NCC(c2cccnc2)N2CCc3ccccc32)cc1 (stereo not given) | inconclusive: 7.08 µM [inhibitor, partial curve, poor fit]
COC(=O)c1c(-c2ccc(Cl)cc2)noc1N1CCN(c2ccc(C)cc2C)CC1 | inactive
Cc1ccc(-c2nnc(SCc3ccccc3C#N)o2)cc1 | inconclusive: 7.08 µM [inhibitor, partial curve, poor fit]
COc1cc(/C=C(\C#N)c2nc3ccccc3n2C)cc(OC)c1OC | inactive
CCc1ccc(Oc2c(C(F)(F)F)oc3c(CN4CCN(C)CC4)c(O)ccc3c2=O)cc1 | inconclusive: 44.7 µM [inhibitor, partial curve, poor fit]
O=C(NCCc1ccccc1)c1cc(S(=O)(=O)N2CCCCC2)c[nH]1 | inconclusive: 1.12 µM [inhibitor, full curve, poor fit]
COc1ccccc1N1CCN(c2ncccc2-c2nc(-c3ccc(Cl)cc3)no2)CC1 | inconclusive: 0.199 µM [inhibitor, full curve, poor fit]
COc1ccc(S(=O)(=O)N2CCC(Oc3ccc(-n4cnnn4)cc3)CC2)cc1OC | inconclusive: 39.8 µM [inhibitor, partial curve, poor fit]
O=C(CSc1cn(CC(=O)N2CCCCCC2)c2ccccc12)Nc1ccccc1F | inconclusive: 4.47 µM [inhibitor, partial curve, poor fit]
O=C(CSc1cn(CC(=O)N2CCCCC2)c2ccccc12)Nc1ccccc1F | inconclusive: 0.631 µM [inhibitor, full curve, poor fit]

SMILES | Potency
CCCCNc1nc(Oc2ccc(=O)n(C)n2)nc(N(C)C)n1 | inconclusive: 39.8 µM [inhibitor, partial curve, poor fit]
Cc1cccc(C)c1Nc1c(-c2ccc(Cl)s2)nc2ncccn12 | inconclusive: 0.891 µM [inhibitor, full curve, poor fit]
Cc1ccc(S(=O)(=O)NCCc2nnc3ccc(SCc4ccccc4C)nn23)cc1 | inconclusive: 2.51 µM [inhibitor, partial curve, poor fit]
Cc1ccc(OCCCCn2c(CCNC(=O)C(C)(C)C)nc3ccccc32)cc1 | inconclusive: 31.6 µM [inhibitor, partial curve, poor fit]
CC(=O)N1CCc2c(sc3c2c(=O)n(-c2ccc(C)cc2)c(=O)n3CC(=O)Nc2ccccc2)C1 | inconclusive: 2 µM [inhibitor, partial curve, poor fit]
COc1ccc(Cl)cc1NC(=O)c1nn(C)c2c1CS(=O)(=O)c1ccccc1-2 | inconclusive: 7.08 µM [inhibitor, partial curve, poor fit]
Cc1cc(C)c(C(=O)Nc2ccccc2)c(SCC(=O)Nc2ccc(Br)cc2C)n1 | inconclusive: 1.12 µM [inhibitor, full curve, poor fit]
Oc1cccc(Nc2ncnc3sc4c(c23)CCCC4)c1 | inconclusive: 3.55 µM [inhibitor, full curve, poor fit]
Cc1cccc(-c2nc3nc(C)cc(N4CCN(c5ccccc5)CC4)n3n2)c1 | inconclusive: 39.8 µM [inhibitor, partial curve, poor fit]
Cc1cc(C)c2c(-n3cccc3)c(C(=O)NCCc3ccccc3)sc2n1 | inconclusive: 0.891 µM [inhibitor, full curve, poor fit]
CS(=O)(=O)N1CCc2cc(C(=O)N3CCN(c4ccccc4)CC3)ccc21 | inconclusive: 39.8 µM [inhibitor, partial curve, poor fit]
CCOc1ccc(CNS(=O)(=O)c2ccc(-c3coc(C)n3)cc2)cc1 | inactive
C=C(C)Cn1c(=O)c2c(nc3n2CCN3c2ccc(F)cc2)n(C)c1=O | inconclusive: 44.7 µM [inhibitor, partial curve, poor fit]
CCCNC(=O)Cn1nc(-c2ccc(F)cc2)c2cnc3ccc(F)cc3c21 | inactive
CCc1ccccc1NC(=O)c1c(NC(=O)c2ccccc2)sc2c1CCCC2 | inactive
CCn1c(=O)cc(OCC(=O)Nc2cc(Cl)c(OC)cc2OC)c2ccccc21 | inconclusive: 39.8 µM [inhibitor, single point]
COc1cc(NC(=O)CSc2ncc(S(=O)(=O)c3ccc(Br)cc3)c(=O)[nH]2)cc(OC)c1 | inconclusive: 1.58 µM [inhibitor, partial curve, poor fit]
COc1cc(CN2CCN(S(=O)(=O)c3ccccc3)CC2)cc(OC)c1O | inconclusive: 39.8 µM [inhibitor, single point]
COCCn1c(=N)c(C(=O)NC(C)c2ccccc2)cc2c(=O)n3cc(C)ccc3nc21 (stereo not given) | inconclusive: 3.98 µM [inhibitor, full curve, poor fit]
CCC(C(=O)Nc1ccc(F)cc1F)n1nc(-c2ccccc2)c2c(c1=O)CCCC2 (stereo not given) | inconclusive: 39.8 µM [inhibitor, partial curve, poor fit]
